Data from patent US20210231538A1, “DISSOCIATION OF BIOLOGICAL SAMPLES” (priority 2018, published 2021).
For at least one compound, name, drawing or mass did not settle the structure.

System: Trimethylglycine:Trifluoroacetamide fixed mouse liver single-cells
Assay: Lysis of fixed cells by solvents and aqueous solutions
Type: cell-based
Conditions: organic solvents in the range of 80-100% final concentration
From the text: This is important for example if studying the RNA component of the cytoplasm, nuclei or the entire cell contents as a selection of the source of the RNA can be made based on the solvent used.

With NC(N)=S [Saturated Thiourea, Thiourea] the “lysing of Trimethylglycine:Trifluoroacetamide (1:2 mol:mol) fixed samples” value was “efficient at lysing”.
